Experimental data taken from PubChem BioAssay AID330 (DTP/NCI, 2004).
The list is a part of this screen's results and no random one: it gathers some chemical classes. Not every dose and run of a compound is shown. T/C gives the treated animals as a percentage of the vehicle group. Where survival is the endpoint, the PubChem record calls one and a half times the control and up active, and a quarter to a half above the control has no call in these data; cut-offs in other NCI protocols can differ. Schedules are NCI's codes, read here as Q, the interval in days (D) or hours (H), X, the number of doses. Some doses were run more than once; the results are listed from low to high. Some T/C values are marked as having no survivor count here; that says nothing about deaths at the dose. Some metal complexes and salts are drawn in pieces, as in the source, so charges may not balance.

System: P388 leukemia ip, CD2F1 mice, survival T/C
Experiment: NCI In Vivo Anticancer Drug Screen. Data for tumor model P388 Leukemia (intraperitoneal) in CD2F1 (CDF1) mice
Conditions: T/C endpoint: median survival time, higher T/C = longer survival

Structure (SMILES): CN(CCCl)CCCl
- T/C (dose: 0.06 mg/kg/injection, schedule: Q01DX009 (ip), vehicle: saline): 150 [survivor count not shown] and 151 % of control [survivor count not shown]
- T/C (dose: 0.12 mg/kg/injection, schedule: Q01DX005 (ip), vehicle: saline, evaluated on day 30): 176 % of control
- T/C (dose: 0.12 mg/kg/injection, schedule: Q01DX005 (ip), vehicle: saline, evaluated on day 45): 140 and 170 % of control
- T/C (dose: 0.12 mg/kg/injection, schedule: Q01DX005 (ip), vehicle: water): 149 and 169 % of control
- T/C (dose: 0.12 mg/kg/injection, schedule: Q01DX009 (ip), vehicle: saline): 170 [survivor count not shown] and 175 % of control [survivor count not shown]
- T/C (dose: 0.13 mg/kg/injection, schedule: Q01DX005 (ip), vehicle: saline): 183 and 197 % of control
- T/C (dose: 0.25 mg/kg/injection, schedule: Q01DX005 (ip), vehicle: saline, evaluated on day 30): 178 % of control
- T/C (dose: 0.25 mg/kg/injection, schedule: Q01DX005 (ip), vehicle: saline, evaluated on day 45): 144, 184, 209 % of control
- T/C (dose: 0.25 mg/kg/injection, schedule: Q01DX005 (ip), vehicle: water): 169 and 177 % of control
- T/C (dose: 0.25 mg/kg/injection, schedule: Q01DX009 (ip), vehicle: saline): 166 [survivor count not shown] and 172 % of control [survivor count not shown]
- T/C (dose: 0.25 mg/kg/injection, schedule: Q04DX003 (ip), vehicle: saline): 169 and 178 % of control
- T/C (dose: 0.39 mg/kg/injection, schedule: Q04DX002 (ip), vehicle: saline): 150 % of control
- T/C (dose: 0.5 mg/kg/injection, schedule: Q01DX005 (ip), vehicle: saline, evaluated on day 30): 181 % of control
- T/C (dose: 0.5 mg/kg/injection, schedule: Q01DX005 (ip), vehicle: saline, evaluated on day 45): 163, 209, 214, 233 % of control
- T/C (dose: 0.5 mg/kg/injection, schedule: Q01DX005 (ip), vehicle: water): 177 % of control
- T/C (dose: 0.5 mg/kg/injection, schedule: Q01DX009 (ip), vehicle: saline): 187 [survivor count not shown] and 201 % of control [survivor count not shown]
- T/C (dose: 0.5 mg/kg/injection, schedule: Q04DX003 (ip), vehicle: saline): 186 and 200 % of control
- T/C (dose: 0.65 mg/kg/injection, schedule: Q04DX002 (ip), vehicle: saline): 164 % of control
- T/C (dose: 1.0 mg/kg/injection, schedule: Q01DX005 (ip), vehicle: saline, evaluated on day 30): 163 % of control
- T/C (dose: 1.0 mg/kg/injection, schedule: Q01DX005 (ip), vehicle: saline, evaluated on day 45): 153, 175, 281 % of control
- T/C (dose: 1.0 mg/kg/injection, schedule: Q01DX005 (ip), vehicle: water): 235 % of control
- T/C (dose: 1.0 mg/kg/injection, schedule: Q01DX009 (ip), vehicle: saline): 162 [survivor count not shown] and 218 % of control [survivor count not shown]
- T/C (dose: 1.0 mg/kg/injection, schedule: Q04DX003 (ip), vehicle: saline): 205 and 215 % of control
- T/C (dose: 1.08 mg/kg/injection, schedule: Q04DX002 (ip), vehicle: saline): 174 % of control
- T/C (dose: 1.8 mg/kg/injection, schedule: Q04DX002 (ip), vehicle: saline): 178 % of control
- T/C (dose: 2.0 mg/kg/injection, schedule: Q01DX005 (ip), vehicle: saline): 155 % of control
- T/C (dose: 2.0 mg/kg/injection, schedule: Q04DX003 (ip), vehicle: saline): 213 % of control
- T/C (dose: 3.0 mg/kg/injection, schedule: Q04DX002 (ip), vehicle: saline): 100 % of control

Structure (SMILES): CN(CCCl)CCCl.CN(CCCl)CCCl.[Cl][Pt+2][Cl]
- T/C (dose: 3.13 mg/kg/injection, schedule: Q01DX009 (ip), vehicle: saline): 185 % of control [survivor count not shown]
- T/C (dose: 6.25 mg/kg/injection, schedule: Q01DX009 (ip), vehicle: saline): 219 % of control [survivor count not shown]
- T/C (dose: 12.5 mg/kg/injection, schedule: Q01DX009 (ip), vehicle: saline): 194 % of control [survivor count not shown]
- T/C (dose: 25.0 mg/kg/injection, schedule: Q01DX009 (ip), vehicle: saline): 159 % of control [survivor count not shown]

Structure (SMILES): CN(CCCl)CCCl.O.O.O.[Cl][Ni+][Cl]
- T/C (dose: 3.13 mg/kg/injection, schedule: Q01DX009 (ip), vehicle: water): 133 % of control [survivor count not shown]
- T/C (dose: 6.25 mg/kg/injection, schedule: Q01DX009 (ip), vehicle: water): 141 % of control [survivor count not shown]
- T/C (dose: 11.0 mg/kg/injection, schedule: Q01DX009 (ip), vehicle: saline): 148 % of control [survivor count not shown]
- T/C (dose: 12.5 mg/kg/injection, schedule: Q01DX009 (ip), vehicle: water): 153 % of control [survivor count not shown]
- T/C (dose: 16.5 mg/kg/injection, schedule: Q01DX009 (ip), vehicle: saline): 155 % of control [survivor count not shown]
- T/C (dose: 25.0 mg/kg/injection, schedule: Q01DX009 (ip), vehicle: water): 162 % of control [survivor count not shown]
